At least one compound was matched to its structure with a doubt left.
Biological target: T1, TLR 3 (Homo sapiens, UniProt O15455)
T1 construct: endogenous in cells; host or cells: BEAS2B (ATCC)
T1 sequence (O15455 24-904): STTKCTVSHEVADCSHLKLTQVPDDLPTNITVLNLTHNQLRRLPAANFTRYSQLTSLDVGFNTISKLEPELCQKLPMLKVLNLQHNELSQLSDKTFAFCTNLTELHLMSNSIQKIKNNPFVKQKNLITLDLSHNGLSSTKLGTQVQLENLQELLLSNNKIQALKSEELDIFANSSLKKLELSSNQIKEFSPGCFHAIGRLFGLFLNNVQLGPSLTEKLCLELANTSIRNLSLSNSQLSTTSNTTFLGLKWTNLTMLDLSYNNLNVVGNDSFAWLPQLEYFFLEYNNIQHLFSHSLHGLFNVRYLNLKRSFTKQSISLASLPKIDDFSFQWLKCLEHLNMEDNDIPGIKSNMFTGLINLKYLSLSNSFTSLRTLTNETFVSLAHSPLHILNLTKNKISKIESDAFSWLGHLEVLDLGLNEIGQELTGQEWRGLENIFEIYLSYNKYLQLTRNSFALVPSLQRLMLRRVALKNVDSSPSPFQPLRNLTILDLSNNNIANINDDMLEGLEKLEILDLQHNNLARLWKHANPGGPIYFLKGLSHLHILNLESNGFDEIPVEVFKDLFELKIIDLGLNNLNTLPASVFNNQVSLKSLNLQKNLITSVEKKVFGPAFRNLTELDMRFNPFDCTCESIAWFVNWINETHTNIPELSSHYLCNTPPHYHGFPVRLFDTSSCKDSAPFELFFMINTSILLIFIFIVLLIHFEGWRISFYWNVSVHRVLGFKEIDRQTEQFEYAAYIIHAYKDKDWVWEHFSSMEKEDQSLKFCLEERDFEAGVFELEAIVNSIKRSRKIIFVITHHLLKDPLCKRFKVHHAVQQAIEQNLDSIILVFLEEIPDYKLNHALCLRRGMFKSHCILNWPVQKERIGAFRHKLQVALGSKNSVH
Assay: poly I:C-induced IL-8 release by BEAS2B cells (TLR 3 antagonism)
Format: cell-based
Conditions: reduction in cytokine secretion vs activating TLR ligand alone
Procedure: Human bronchial epithelial cells, BEAS2B, were obtained from ATCC and maintained in bronchial epithelial cell growth medium (BEGM), supplemented with the BulleKit from Lonza in accordance with protocol (M. H. Hudy, S. et al., “Cigarette smoke modulates rhinovirus-induced airway epithelial cell chemokine production.,” Eur. Respir. J., vol. 35, no. 6, pp. 1256-63, June 2010). Cells were cultured at 37 C with 5% carbon dioxide:95% air atmosphere maintained within the incubator. Experiments were conducted in 48-well plates and cells were seated at a density of 5×10^4 per well. After 24 hours, the BEGM medium was replaced with RPMI-1640 medium and incubated for an additional 24 hours. Liposomes were prepared as described above. Each condition for cell stimulation and antagonism was prepared in RPMI medium in a separate tube and consisted of: control (medium alone), TLR agonist, TLR agonist+lipid, and lipid alone. […] Subsequently, media were collected, diluted and an enzyme-linked immunosorbent assay (ELISA) was performed to quantify IL-8 release by cells.
The ability of PX lipids to enter the endosomal compartment and modulate immune signaling was next assessed. […] After incubation, media was collected and IL-8 was quantified as a consequence of TLR 3 activation, and results are summarized in FIG. 5. […]

SMILES | TLR3 antagonist activity
CCCCCC=CCC=CCCCCCCCC(=O)OCC(COP(=O)(O)OCC(O)C(O)C(O)CO)OC(=O)CCCCCCCC=CCC=CCCCCC (mixture of isomers) [18:2 DLPX, sn-1-linoleoyl, sn-2-linoleoyl sn-3 glycerol phosphoxylitol] | −
CCCCCCC=CCCCCCCCC(=O)OCC(COP(=O)(O)OCC(O)C(O)C(O)CO)OC(=O)CCCCCCCC=CCCCCCC (mixture of isomers) [16:1 DPPX, sn-1-palmitoleoyl, sn-2-palmitoleoyl sn-3 glycerol phosphoxylitol] | −

Reference: patent US12472193B2, “Methods and compositions for treating and preventing respiratory related diseases and conditions with xylitol-headgroup lipid analogs” (National Jewish Health, priority 2017, dated 2025)
